Consider one compound from patent US12721846B2, “Methods for treating behavioral and psychological symptoms in patients with dementia” (SUVEN LIFE SCIENCES LIMITED, priority 2019, dated 2026).

The experiment concerns norepinephrine and dopamine levels in prefrontal cortex. In words: Microdialysis: modulation of norepinephrine and dopamine levels in cortex. It is filed as in vivo, rat. To be noted: male Wistar rats, masupirdine 3 mg/kg p.o., donepezil or memantine 1 mg/kg s.c. The text has this: Male Wistar rats (240-300 g body weight) were stereotaxically implanted with a microdialysis guide cannula in prefrontal cortex (PFC; AP: +3.2 mm, ML: −0.5 mm, DV: −1.0 mm) under isoflurane anesthesia. […] The rats were allowed to recover individually for four days in a round bottom Plexiglas bowl with free access to feed and water.
Sixteen hours before start of the study, a pre-equilibrated microdialysis probe (4 mm dialysis membrane) was inserted into PFC through the guide cannula. On the day of study, probe was perfused with artificial cerebrospinal fluid (aCSF; NaCl 150 mmol, KCl 3.0 mmol, MgCl2 0.9 mmol, CaCl2. 2H2O 1.7 mmol, pH 6.2) at a flow rate of 1.5 μL/min and a stabilization period of 2 h was maintained. […] Dialysates were stored below −50° C. prior to analysis.
Norepinephrine and dopamine levels in dialysates were quantified using LC-MS/MS method.
Statistical significance was considered at a p value less than 0.05.

Each structure is given as a SMILES string.

Regarding `COc1cc2c(cc1OC)C(=O)C(CC1CCN(Cc3ccccc3)CC1)C2` (centres unmarked) [donepezil], the “cortical dopamine levels, AUC of percent change” value was 307.79±52.22 and the “cortical norepinephrine levels, AUC of percent change” value is on record as 333.77±39.77.
